Laboratory results as given in PubChem BioAssay AID2685 (National Center for Advancing Translational Sciences (NCATS), 2010).
In all, about 320,000 compounds went through this assay and about 2,100 (0.66%) were called active. The shares of active, inactive and inconclusive entries below differ from those in the screen. The call rests on the fitted dose curve; in most records, active means well fitted inhibition curve with a large enough effect in the signal ratio, with a control signal flat (not every such curve was filed as active); inconclusive means small, poorly fitted or top-dose-only effect, or effect the other way, or a change in a side signal; inactive means flat fitted curve, though single readings scatter; the % refers to the signal ratio. Where the call is inconclusive, the potency comes from a doubtful curve fit.

experiment: qHTS Assay for Lipid Storage Modulators in Drosophila S3 Cells; settings: BODIPY lipid droplet fluorescence, 18-24 h, cells fed with added oleic acid; lipid storage change, negative = inhibition: at 46.1 µM (top of the series) unless noted
Outline: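 Drosophila S3 cells loaded with oleic acid (400 uM, as added) and compounds at several concentrations; lipid droplets imaged by 488-nm laser-scanning cytometry, 500–530 nm intensity and object ratio to cell channel. Percent activity normalized to 20 uM Triacsin C.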
On the % scale 0 is the no-effect control and ±100 the full control effect; potency means the concentration at half of the fitted maximal effect.

Structure (SMILES)	lipid storage change, negative = inhibition	Potency
COC(=O)c1cccc(NC(=O)NC23CC4CC(CC(C4)C2)C3)c1	inconclusive: 32.1%	–
Cc1sc(NC(=O)c2ccco2)nc1-c1ccc2c(c1)CC(C)N2C(=O)C1CC1 (centres undefined)	inconclusive: 4.98%	–
COc1ccccc1C(=O)Nc1ccc2c(c1)n(C)c(=O)n2C	inconclusive: 20.7%	–
C=CCNC(=S)N(Cc1ccccc1)Cc1ccccc1	–	inconclusive: 29.1 µM [activator, partial curve, poor fit]
Cc1cccc(NC(=O)c2cccc3c2C(=O)c2ccccc2-3)c1	inconclusive: -27.4%	–
O=C(CSc1nc2ccccc2o1)NCc1n[nH]c(=O)c2ccccc12	–	inconclusive: 0.0065 µM [falling, full curve, poor fit]
COc1ccccc1CNC(=O)c1ccc(-c2ccccc2Cl)o1	–	inconclusive: 16.4 µM [activator, partial curve, poor fit]
O=C(Nc1ccc(Cl)cc1)N1CCCN(c2ccc(C(F)(F)F)cc2[N+](=O)[O-])CC1	inconclusive: -85.8%	–
CC(NC(=O)CSc1cccc(C(F)(F)F)c1)c1ccccc1 (centres undefined)	inconclusive: 8.66%	–
COc1ccc(N2CC(C(=O)Nc3ccc(S(=O)(=O)Nc4nccs4)cc3)CC2=O)c(OC)c1 (centres undefined)	inconclusive: 46.1%	–
Cc1ccccc1CC1S/C(=N/N=C/c2ccco2)NC1=O (centres undefined)	inconclusive: 24.9%	–
CC(C)(C)NC(=O)CSc1ccc(S(=O)(=O)N2CCOCC2)cn1	inconclusive: -7.02%	–
CCOC(=O)CNC(=S)N(Cc1ccco1)Cc1ccccc1Cl	inconclusive: -32.6%	–
Cc1nn(C)cc1CNC(=O)c1ccc(F)cc1	inconclusive: 11.8%	–
COc1ccc(/C=N\NC(=O)c2ccccc2OC)cc1COc1ccccc1C	–	inconclusive: 16.4 µM [falling, single point]
CC(C)[C@@H]1COC(c2cccc(C3=N[C@H](C(C)C)CO3)n2)=N1	inconclusive: 9.13%	–
CC1(c2ccccc2)NC(=O)N(CC(=O)N2CCOCC2)C1=O (centres undefined)	inconclusive: -25.1%	–
CCc1ccc(OCCCCCn2ccnc2)cc1	–	active: 4.61 µM
CCC(NC(=O)NCc1cccnc1)(C(F)(F)F)C(F)(F)F	–	inconclusive: 29.1 µM [activator, single point]
Cc1ccc(-c2ccc(=O)n(CCC(=O)N3CCN(Cc4ccccc4)CC3)n2)cc1	inactive	–
Cc1ccnc(N2CCC(C(=O)Nc3ccc(Oc4ccccc4)cc3)CC2)n1	inconclusive: 14.4%	–
COc1cc2c(cc1OC)C(=O)N1[C@H]3c4ccccc4OC[C@@H]3[C@H](c3ccccc3)[C@]1(C)C(=O)N2	–	inconclusive: 23.1 µM [activator, single point]
COc1cc(/C=N/NC(=O)CCc2c(C)n[nH]c2C)ccc1O	–	inconclusive: 20.6 µM [activator, single point]
N#Cc1cc(Nc2c(N)nc[nH]c2=O)c([N+](=O)[O-])cc1C#N	inconclusive: -28.8%	–
Cn1c(=O)c2c(ncn2CC(=O)OCC(=O)Nc2ccccc2)n(C)c1=O	inconclusive: 18.8%	–

A different layout for part of the listing above:
Structure (SMILES),"lipid storage change, negative = inhibition",Potency
Cc1nn(C)cc1CNC(=O)c1ccc(F)cc1,inconclusive: 11.8%,–
COc1ccc(/C=N\NC(=O)c2ccccc2OC)cc1COc1ccccc1C,–,"inconclusive: 16.4 µM [falling, single point]"
CC(C)[C@@H]1COC(c2cccc(C3=N[C@H](C(C)C)CO3)n2)=N1,inconclusive: 9.13%,–
CC1(c2ccccc2)NC(=O)N(CC(=O)N2CCOCC2)C1=O (centres undefined),inconclusive: -25.1%,–

The results go on.

Structure (SMILES)	lipid storage change, negative = inhibition	Potency
COc1cccc(CC(=O)N2CCCC(CCC(=O)N3CCN(c4ccccn4)CC3)C2)c1 (centres undefined)	–	inconclusive: 29.1 µM [falling, single point]
CCC(C)NC(=O)C1CCN(CCCc2ccccc2)CC1 (centres undefined)	inconclusive: -50.4%	–
Cc1ccc2nc(NC(=O)c3ccc(N4C(=O)CCC4=O)cc3)sc2c1	inconclusive: 31.5%	–
Cc1cccc(CN2C[C@]34CC[C@@H](C[C@@H]3S2(=O)=O)O4)c1	inconclusive: -7.58%	–
CC(C)c1ccccc1N1CC(C(=O)O)CC1=O (centres undefined)	–	inconclusive: 29.1 µM [falling, single point]
CCC(=O)Nc1ccccc1Oc1ccccc1	inconclusive: -28.5%	–
Cc1cc2ncc(S(=O)(=O)C(C)(C)C)c(N)n2n1	inconclusive: 8.48%	–
COc1ccc(NC(=O)CCCn2c(=O)c3sccc3n(Cc3cccc(C)c3)c2=O)cc1	inconclusive: 15.4%	–
C#CCNC(=O)C1=C[C@@H](c2coc3ccccc3c2=O)[C@H](CCCO)[C@@H](OCC)O1	–	inconclusive: 25.9 µM [falling, single point]
Cc1ccccc1N(C(=O)CS(=O)CC(=O)Nc1ccc(F)cc1)C(C)C(=O)NC(C)(C)C (centres undefined)	inconclusive: 28.7%	–
CCN(C(=S)NCCOC)c1cccc2ccccc12	inconclusive: 0.714%	–
O=C(Nc1nc2ccccc2[nH]1)c1cccc(S(=O)(=O)N2CCOCC2)c1	–	inconclusive: 0.58 µM [activator, full curve, poor fit]
CC(=O)Nc1sc(C)c(C)c1C(=O)OC1CCOC1=O (centres undefined)	inconclusive: -70.2%	–
CC1(C)CC(/C=C/c2ccccc2)=Nc2ccccc2N1	–	inconclusive: 29.1 µM [falling, single point]
C[n+]1cc(C(=O)N2CCCCC2)ccc1/C=C/c1c[nH]c2ccccc12	inconclusive: -13.6%	–
CS(=O)(=O)n1nc(-c2cccnc2)nc1NCc1ccccc1	–	inconclusive: 0.116 µM [activator, full curve, poor fit]
Cc1cccc(NC(=O)COc2ccc(-c3nn(C)c(=O)c4ccccc34)cc2)c1	–	inconclusive: 20.6 µM [falling, single point]
CCOc1ccc(C2/C(=C(/O)c3ccc(F)cc3)C(=O)C(=O)N2CCCN(C)C)cc1 (centres undefined)	inconclusive: -28.9%	–
NC(=O)CC[C@@H]1NC(=O)[C@H](CO)NC(=O)c2cc([N+](=O)[O-])cc(I)c2NCC[C@@H](C(N)=O)NC1=O	inconclusive: -1.73%	–
O=C(NCc1ccncc1)C1CCN(S(=O)(=O)c2cc(Cl)ccc2Cl)CC1	inconclusive: 72.7%	–
O=C(COc1ccccc1Cl)N1CCN(c2ccccn2)CC1	inconclusive: 45.1%	–
CCS(=O)(=O)c1ccc(O)c(NC(=O)Nc2ccc(C(C)(C)C)cc2)c1	inconclusive: 6.12%	–
Cc1ccc(Cl)cc1N1CCN(C(=O)CNC(=O)c2ccc(Br)o2)CC1	inconclusive: -9.37%	–
CC/C(=N\NC(=O)c1ccc(-c2ccccc2)cc1)C12CC3CC(CC(C3)C1)C2	–	inconclusive: 0.651 µM [rising, full curve]
CCc1cc(CNC(=O)c2ccc(OC)c(OC3CCN(C(C)C)CC3)c2)on1	inconclusive: -15.3%	–

Structure (SMILES)	lipid storage change, negative = inhibition	Potency
c1ccc2c(CNn3cnnc3)cccc2c1	inconclusive: -10.6%	–
Cc1ccc(OC(C)C(=O)Nc2ccc(S(=O)(=O)N3CCOCC3)cc2)cc1 (centres undefined)	inconclusive: -38.4%	–
O=[N+]([O-])c1ccc(O)c(Nc2ncnc3ccc(Br)cc23)c1	inconclusive: 6.84%	–
CCc1cc(=O)oc2c3c(cc(OCC(=O)NCc4cccnc4)c12)OC(C)(C)CC3	–	active: 7.31 µM
O=C(NCc1ccccc1)Nc1cccn(Cc2ccc(F)cc2)c1=O	–	inconclusive: 2.06 µM [activator, full curve, poor fit]
O=C(NCCN1CCOCC1)c1ccccc1-c1ccccc1	inconclusive: -20.3%	–
Cc1cc(Cl)cc2c1NC(=O)[C@]21[C@@H]2C(=O)N(Cc3ccccc3)C(=O)[C@@H]2[C@@H]2CCCN21	–	inconclusive: 6.51 µM [activator, single point]
O=C(Nc1ccccc1C(=O)O)c1cc(S(=O)(=O)Nc2cccc(F)c2)ccc1Cl	–	inconclusive: 11.6 µM [activator, partial curve]
O=S1(=O)CCOC[C@H](c2ccccc2)N1Cc1ccccc1	inconclusive: 34.4%	–
Cc1ccc(S(=O)(=O)N2CCCC2CO)cc1 (centres undefined)	inconclusive: -14.6%	–
N/C(=N\OC(=O)CCCOc1ccc(Cl)cc1Cl)c1ccccn1	inconclusive: -35.4% [cytotoxic] [at 0.369 µM]	–
CCOC(=O)/C(C#N)=C/c1c(N2CCN(c3ccccc3)CC2)nc2ccccn2c1=O	inconclusive: -21%	–
Cc1c(C)c2ccc(O)c(CN3CCN(C)CC3)c2oc1=O	inconclusive: 8.49%	–
Cc1ccc2c(c1)N(CCCC(=O)NCc1ccc3c(c1)OCO3)C(=O)CO2	inconclusive: 17%	–
CCCCCCCCCCC[N+](C)(C)CC/C=C1/c2ccccc2Sc2ccc(Cl)cc21	–	inconclusive: 23.1 µM [cytotoxic, single point]
Cc1ccc(S(=O)(=O)N(Cc2ccccc2)C(C)C)cc1	–	inconclusive: 23.1 µM [falling, single point]
Cn1cccc1/C=N/NC(=O)CSc1nc2ccccc2n1C	inconclusive: 7.53%	–
NC(=O)c1ccc(C(F)(F)F)n(Cc2c(Cl)cccc2Cl)c1=O	–	inconclusive: 29.1 µM [falling, single point]
COc1ccc(NC(=O)Cn2c(=O)c(C)nc3ccccc32)cc1Cl	inconclusive: 6.45%	–
c1ccc2c(c1)nc(N1CCOCC1)c1nncn12	–	inconclusive: 2.91 µM [activator, single point]
O=C(CNC(=S)NC(=O)c1ccc(Br)o1)c1ccccc1	–	inconclusive: 2.59 µM [activator, partial curve]
CCOc1ccc(CCNC(=O)c2cc([N+](=O)[O-])ccc2N2CCOCC2)cc1OCC	–	inconclusive: 32.6 µM [falling, partial curve, poor fit]
CCOC(=O)C1(Cc2ccccc2Cl)CCN(C(=O)CCn2ccnc2C)CC1	inconclusive: 36.4%	–
CN(C)S(=O)(=O)c1ccc(N/C=C(\[N+](=O)[O-])S(=O)(=O)c2ccccc2)cc1	inconclusive: -72.5%	–
